# Measured values reported in paper PMC9181014 (International Journal of Molecular Sciences, 2022).
# Test: general procedure: Fmoc solid-phase peptide synthesis; Fmoc Rink amide MBHA resin (substitution 0.67 mmol/g); DIC/Oxyma
# Details: whole synthesis, analytical RP-HPLC
substance,measurement,value
"PEPTIDE1{[Suc].G.L.Q.R.M.V.L.V.D.L.K.G.G.Y.G.R.K.K.R.R.Q.R.R.R.[am]}$PEPTIDE1,PEPTIDE1,1:R3-12:R3$$$V2.0",final HPLC purity,100.00%

# Strings that start with PEPTIDE1 are HELM notation: dots part the residues, brackets hold end groups and non-standard residues.
